Results on 2 substances are retold here after paper doi:10.1101/2023.01.12.523872.

Numbering of substitutions follows the chain as printed. These are yes or no findings as the source states them, for the method shown. Binding seen in cells or lysates may run through a third protein. For part of these data: Binding calls can cover weak binding; strength is not graded here. Where a sequence is shown, tags or fusion partners need not be part of it.

Assay in all cases: co-IP
The target of one assay is T1, Scs2-GFP-TM (S. pombe) (UniProt O60119).
T1 sequence: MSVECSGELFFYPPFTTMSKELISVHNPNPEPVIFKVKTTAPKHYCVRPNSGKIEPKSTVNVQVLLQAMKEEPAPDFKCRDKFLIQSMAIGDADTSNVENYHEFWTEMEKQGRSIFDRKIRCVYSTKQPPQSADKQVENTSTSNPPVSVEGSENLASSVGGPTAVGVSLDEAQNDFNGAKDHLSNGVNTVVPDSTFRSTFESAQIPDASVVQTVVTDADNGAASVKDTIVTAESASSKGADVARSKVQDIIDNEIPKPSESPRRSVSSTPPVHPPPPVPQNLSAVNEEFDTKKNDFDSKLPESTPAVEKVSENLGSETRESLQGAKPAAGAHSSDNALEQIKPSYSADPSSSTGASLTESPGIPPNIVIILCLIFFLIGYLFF

A further assay concerns the target T2, Scs22-GFP-TM (S. pombe) (UniProt Q10484).
T2 sequence: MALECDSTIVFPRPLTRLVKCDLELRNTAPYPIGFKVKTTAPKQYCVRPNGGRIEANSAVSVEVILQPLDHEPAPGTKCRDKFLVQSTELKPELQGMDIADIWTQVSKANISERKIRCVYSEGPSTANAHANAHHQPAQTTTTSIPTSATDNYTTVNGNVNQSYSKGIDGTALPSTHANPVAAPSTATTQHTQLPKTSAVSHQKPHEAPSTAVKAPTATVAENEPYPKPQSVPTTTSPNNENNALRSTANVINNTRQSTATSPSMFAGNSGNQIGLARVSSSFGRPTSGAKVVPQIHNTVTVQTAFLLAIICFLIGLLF

The target of assay [1] is T3, Scs2^3KA-GFP-TM (S. pombe) (UniProt O60119).
T3 sequence: T1 sequence with K36A, K38A, K43A

The target in assay [2] is T4, Scs22^3KA-GFP-TM (S. pombe) (UniProt Q10484).
T4 sequence: T2 sequence with K36A, K38A, K43A

In the case of Csr102, C-terminally tagged (S. pombe), the binding entry with Scs2-GFP-TM (S. pombe) and in the assay with Scs22-GFP-TM (S. pombe) was “binds” in each case.

Regarding Pdr16, C-terminally tagged (S. pombe), the binding result with Scs2-GFP-TM (S. pombe) is recorded as “binds”; in assay [1], “no binding”; in assay [2], “no binding”; with Scs22-GFP-TM (S. pombe), “no binding”.
